How the values were obtained:
in vitro [1] = details: human, Caco-2
in vitro [2] = details: human, Caco-2; remark: listed apart in the source

`Cc1cnc(NCCc2ccc(C(F)(F)F)cc2)c(=O)n1CC(=O)NCCONC(=N)N` gave a Papp B→A (in vitro [1]) of 3.32 ×10⁻⁶ cm/s and a Papp A→B (in vitro [2]) of 0.74 ×10⁻⁶ cm/s.

Reference: ChEMBL document CHEMBL1154904 (J Med Chem, 2010)
